Data: paper PMC2670536
Results are given in words; binding and its absence hold for the method and conditions named. In cells and extracts the contact can be indirect. Some binding calls cover weakened binding; strength is not graded here.

Sequences of proteins named here, by UniProt entry; tags and fusion partners are left off. Residues count along the entry.
UniProt Q02248: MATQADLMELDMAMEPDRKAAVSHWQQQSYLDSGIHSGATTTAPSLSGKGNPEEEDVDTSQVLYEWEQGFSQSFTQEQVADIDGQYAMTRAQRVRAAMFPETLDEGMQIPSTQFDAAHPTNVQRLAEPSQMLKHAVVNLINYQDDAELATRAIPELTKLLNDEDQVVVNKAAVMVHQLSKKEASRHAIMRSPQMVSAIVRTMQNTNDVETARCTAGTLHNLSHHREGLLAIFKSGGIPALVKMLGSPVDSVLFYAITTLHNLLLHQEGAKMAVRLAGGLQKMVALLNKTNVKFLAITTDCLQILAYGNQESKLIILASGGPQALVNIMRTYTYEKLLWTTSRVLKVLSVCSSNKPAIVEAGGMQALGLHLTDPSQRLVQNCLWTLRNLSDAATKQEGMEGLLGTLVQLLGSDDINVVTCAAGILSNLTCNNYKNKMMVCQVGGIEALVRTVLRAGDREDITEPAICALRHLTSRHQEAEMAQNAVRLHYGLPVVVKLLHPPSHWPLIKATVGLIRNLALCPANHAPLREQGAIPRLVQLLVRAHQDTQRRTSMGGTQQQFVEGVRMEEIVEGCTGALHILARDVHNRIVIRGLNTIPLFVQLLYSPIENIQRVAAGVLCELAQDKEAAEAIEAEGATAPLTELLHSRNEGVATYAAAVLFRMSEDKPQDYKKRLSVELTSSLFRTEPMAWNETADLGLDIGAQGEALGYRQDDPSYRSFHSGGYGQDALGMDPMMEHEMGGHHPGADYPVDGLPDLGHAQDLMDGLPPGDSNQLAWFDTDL
UniProt P15116, residues 160-906: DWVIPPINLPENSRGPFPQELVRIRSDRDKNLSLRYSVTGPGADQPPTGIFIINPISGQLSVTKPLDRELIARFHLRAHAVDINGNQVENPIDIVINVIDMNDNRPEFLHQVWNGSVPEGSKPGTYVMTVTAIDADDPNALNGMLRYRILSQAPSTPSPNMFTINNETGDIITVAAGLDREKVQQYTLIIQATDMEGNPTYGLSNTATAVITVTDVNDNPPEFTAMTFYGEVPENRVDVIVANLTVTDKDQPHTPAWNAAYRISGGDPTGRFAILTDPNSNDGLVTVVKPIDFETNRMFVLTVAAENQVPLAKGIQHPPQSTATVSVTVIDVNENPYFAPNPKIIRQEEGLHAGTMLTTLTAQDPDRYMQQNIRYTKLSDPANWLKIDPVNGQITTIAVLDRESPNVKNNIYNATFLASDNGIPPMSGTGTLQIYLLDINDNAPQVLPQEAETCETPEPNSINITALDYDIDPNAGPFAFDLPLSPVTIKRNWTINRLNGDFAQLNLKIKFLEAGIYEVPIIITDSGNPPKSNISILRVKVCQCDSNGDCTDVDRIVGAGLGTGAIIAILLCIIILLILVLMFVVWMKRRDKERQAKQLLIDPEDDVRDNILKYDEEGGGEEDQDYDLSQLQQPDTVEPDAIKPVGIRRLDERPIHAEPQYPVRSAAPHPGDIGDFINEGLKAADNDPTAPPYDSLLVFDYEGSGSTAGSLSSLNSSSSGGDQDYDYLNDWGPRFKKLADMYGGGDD

Target: β-catenin (mouse (endogenous in C3H10T1/2)) (UniProt Q02248)
Experiment: co-IP; lysates of C3H10T1/2 cells, control or after 35 min of oscillatory fluid flow; β-catenin precipitated with anti-β-catenin antibody and Protein G sepharose; beads washed four times with IP buffer (10 mM Tris-HCl pH 7.5, 1% Triton X-100, 0.5% NP-40, 150 mM NaCl, 2 mM CaCl2); western blot for N-cadherin, normalised to β-catenin

- binding: binds
Substance: N-cadherin (from UniProt P15116 160-906)
